Measurements reported in PMC5932847.
No constants are given. Whether binding was seen depends on the method and setting. In cells and extracts the contact can be indirect. Some entries that bind do so weakly or less than the wild type.

Chains of the proteins cited; added tags and fusions are not shown.
UniProt O43684: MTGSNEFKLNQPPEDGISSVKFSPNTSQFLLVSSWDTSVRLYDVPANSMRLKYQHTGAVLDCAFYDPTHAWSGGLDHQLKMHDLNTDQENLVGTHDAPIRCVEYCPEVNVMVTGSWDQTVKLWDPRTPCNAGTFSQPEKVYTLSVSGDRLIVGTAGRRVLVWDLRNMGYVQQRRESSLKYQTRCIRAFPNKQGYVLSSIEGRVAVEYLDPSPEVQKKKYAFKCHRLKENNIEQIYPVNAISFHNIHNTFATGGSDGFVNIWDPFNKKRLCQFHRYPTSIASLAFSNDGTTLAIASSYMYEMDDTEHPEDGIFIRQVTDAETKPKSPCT
UniProt P62993: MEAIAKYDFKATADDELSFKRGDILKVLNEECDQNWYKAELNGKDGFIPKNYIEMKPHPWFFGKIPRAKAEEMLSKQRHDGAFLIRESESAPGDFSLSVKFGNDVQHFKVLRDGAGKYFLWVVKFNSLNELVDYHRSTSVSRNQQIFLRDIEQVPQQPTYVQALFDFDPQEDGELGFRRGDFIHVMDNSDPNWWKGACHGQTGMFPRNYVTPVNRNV
UniProt P31749: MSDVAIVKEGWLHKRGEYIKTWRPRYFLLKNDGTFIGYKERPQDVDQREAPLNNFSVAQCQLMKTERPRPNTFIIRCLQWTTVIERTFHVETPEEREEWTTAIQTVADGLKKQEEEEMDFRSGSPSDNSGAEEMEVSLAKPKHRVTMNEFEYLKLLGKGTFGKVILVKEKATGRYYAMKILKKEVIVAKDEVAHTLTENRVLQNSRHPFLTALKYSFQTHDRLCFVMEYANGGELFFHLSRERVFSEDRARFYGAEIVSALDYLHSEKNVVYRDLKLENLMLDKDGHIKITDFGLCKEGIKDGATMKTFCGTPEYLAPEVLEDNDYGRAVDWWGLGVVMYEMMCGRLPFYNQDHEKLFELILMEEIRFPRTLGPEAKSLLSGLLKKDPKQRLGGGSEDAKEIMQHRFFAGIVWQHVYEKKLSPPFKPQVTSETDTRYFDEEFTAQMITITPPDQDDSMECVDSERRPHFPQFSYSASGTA

Columns and labels:
Experiment in all cases: co-IP; AKT1 pull down samples and reverse immunoprecipitation of over-expressed baits (BUB3, GRB2) from HEK293 cells; western blotting with antibodies against AKT1 and the relevant baits
[1] = target: BUB3, over-expressed bait (UniProt O43684)
[2] = target: GRB2, over-expressed bait (UniProt P62993)
[3] = target: AKT1 with C-terminal Strep and HA tags (UniProt P31749)

binding [1]	binding [2]	binding [3]	Substance
binds	binds	–	AKT1 detected in the BUB3 and GRB2 pulldown samples (from UniProt P31749 1-480) (enzyme)
–	–	binds	BUB3 (from UniProt O43684 1-328)
–	–	binds	GRB2 (from UniProt P62993 1-217)
